Source: PMC10907362
These are yes or no findings as the source states them, for the method shown. Binding seen in cells or lysates may run through a third protein. Here binding means that the protein was enriched with, or labelled near, the bait; the list need not be complete. Sequences can lack the tags named with a protein.

By UniProt entry, the sequences of proteins in these tests, tags left out.
UniProt P12814: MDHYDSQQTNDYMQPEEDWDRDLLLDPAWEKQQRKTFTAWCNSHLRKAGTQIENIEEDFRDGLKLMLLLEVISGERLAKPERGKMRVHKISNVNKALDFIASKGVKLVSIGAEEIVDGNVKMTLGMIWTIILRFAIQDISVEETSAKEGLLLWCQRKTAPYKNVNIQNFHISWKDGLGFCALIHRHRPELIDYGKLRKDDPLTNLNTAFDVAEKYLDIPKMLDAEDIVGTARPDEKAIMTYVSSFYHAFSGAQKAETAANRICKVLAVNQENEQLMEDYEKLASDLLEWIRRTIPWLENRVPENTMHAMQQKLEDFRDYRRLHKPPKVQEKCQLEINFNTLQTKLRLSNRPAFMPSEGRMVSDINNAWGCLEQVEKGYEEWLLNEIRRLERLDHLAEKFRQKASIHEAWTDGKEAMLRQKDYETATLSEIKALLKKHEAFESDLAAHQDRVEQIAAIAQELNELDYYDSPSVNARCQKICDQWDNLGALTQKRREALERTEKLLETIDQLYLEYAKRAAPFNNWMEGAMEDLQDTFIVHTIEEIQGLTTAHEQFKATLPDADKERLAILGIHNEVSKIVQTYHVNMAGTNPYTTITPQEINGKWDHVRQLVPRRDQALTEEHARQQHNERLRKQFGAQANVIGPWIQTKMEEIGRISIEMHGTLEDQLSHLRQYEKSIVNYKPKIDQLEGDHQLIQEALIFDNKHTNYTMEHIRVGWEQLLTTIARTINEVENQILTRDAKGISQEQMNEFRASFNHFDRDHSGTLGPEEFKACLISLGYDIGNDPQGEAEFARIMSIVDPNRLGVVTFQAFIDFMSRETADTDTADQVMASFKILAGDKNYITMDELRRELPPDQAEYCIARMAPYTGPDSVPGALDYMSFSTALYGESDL
UniProt P47756: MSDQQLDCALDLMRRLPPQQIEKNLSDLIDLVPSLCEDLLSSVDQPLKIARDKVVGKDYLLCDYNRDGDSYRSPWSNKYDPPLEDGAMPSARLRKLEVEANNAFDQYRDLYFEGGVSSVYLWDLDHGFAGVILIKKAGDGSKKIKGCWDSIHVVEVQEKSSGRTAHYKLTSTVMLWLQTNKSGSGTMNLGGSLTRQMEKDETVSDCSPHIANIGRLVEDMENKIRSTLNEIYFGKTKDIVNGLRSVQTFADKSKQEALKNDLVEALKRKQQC
UniProt Q8N1I0: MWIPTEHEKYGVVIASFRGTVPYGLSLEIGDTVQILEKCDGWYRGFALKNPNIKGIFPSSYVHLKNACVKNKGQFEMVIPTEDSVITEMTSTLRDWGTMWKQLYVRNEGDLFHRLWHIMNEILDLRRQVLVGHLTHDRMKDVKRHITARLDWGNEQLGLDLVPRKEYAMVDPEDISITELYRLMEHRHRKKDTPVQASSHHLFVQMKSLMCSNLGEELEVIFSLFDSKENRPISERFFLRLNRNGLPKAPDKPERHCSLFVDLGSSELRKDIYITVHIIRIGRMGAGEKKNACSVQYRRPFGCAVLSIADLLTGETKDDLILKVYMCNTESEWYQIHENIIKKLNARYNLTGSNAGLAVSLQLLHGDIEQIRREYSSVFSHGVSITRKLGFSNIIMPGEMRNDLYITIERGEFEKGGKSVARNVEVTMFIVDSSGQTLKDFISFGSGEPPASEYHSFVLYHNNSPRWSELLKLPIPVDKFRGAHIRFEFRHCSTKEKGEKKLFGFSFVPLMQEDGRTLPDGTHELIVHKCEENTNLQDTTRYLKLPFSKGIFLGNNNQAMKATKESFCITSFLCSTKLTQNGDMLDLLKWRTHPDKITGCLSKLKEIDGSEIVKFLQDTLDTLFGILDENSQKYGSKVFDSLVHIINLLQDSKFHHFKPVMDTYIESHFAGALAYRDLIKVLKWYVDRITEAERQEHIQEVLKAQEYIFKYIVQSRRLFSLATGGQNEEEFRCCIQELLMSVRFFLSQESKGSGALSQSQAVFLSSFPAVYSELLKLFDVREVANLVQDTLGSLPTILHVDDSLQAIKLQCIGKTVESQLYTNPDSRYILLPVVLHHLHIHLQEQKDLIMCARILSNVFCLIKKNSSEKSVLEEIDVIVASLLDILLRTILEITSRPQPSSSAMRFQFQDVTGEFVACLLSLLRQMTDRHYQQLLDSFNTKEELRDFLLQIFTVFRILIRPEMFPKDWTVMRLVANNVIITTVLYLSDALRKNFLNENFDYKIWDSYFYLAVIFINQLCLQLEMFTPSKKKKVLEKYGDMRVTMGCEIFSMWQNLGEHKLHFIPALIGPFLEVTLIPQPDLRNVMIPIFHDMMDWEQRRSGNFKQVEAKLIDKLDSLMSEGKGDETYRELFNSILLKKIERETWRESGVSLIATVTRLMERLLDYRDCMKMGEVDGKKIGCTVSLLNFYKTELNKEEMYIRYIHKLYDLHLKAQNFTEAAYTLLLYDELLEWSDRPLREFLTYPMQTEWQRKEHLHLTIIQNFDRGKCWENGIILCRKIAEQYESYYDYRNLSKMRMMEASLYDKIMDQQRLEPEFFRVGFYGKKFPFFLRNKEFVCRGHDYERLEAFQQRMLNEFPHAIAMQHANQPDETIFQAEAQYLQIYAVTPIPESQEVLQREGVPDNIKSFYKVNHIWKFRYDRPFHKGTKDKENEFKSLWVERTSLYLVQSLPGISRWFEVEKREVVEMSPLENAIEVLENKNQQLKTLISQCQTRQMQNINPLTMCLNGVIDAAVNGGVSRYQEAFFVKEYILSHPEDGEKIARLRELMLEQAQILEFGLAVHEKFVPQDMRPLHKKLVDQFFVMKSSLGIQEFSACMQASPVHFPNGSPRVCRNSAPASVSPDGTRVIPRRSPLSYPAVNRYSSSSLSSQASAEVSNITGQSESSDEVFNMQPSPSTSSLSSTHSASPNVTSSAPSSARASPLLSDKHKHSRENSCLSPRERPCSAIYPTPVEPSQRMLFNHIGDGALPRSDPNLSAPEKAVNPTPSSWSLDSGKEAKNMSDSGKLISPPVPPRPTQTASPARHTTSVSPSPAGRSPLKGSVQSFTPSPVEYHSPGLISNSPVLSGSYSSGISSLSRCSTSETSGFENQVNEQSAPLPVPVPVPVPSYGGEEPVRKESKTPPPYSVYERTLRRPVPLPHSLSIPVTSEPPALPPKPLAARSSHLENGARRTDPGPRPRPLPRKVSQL
UniProt P21333: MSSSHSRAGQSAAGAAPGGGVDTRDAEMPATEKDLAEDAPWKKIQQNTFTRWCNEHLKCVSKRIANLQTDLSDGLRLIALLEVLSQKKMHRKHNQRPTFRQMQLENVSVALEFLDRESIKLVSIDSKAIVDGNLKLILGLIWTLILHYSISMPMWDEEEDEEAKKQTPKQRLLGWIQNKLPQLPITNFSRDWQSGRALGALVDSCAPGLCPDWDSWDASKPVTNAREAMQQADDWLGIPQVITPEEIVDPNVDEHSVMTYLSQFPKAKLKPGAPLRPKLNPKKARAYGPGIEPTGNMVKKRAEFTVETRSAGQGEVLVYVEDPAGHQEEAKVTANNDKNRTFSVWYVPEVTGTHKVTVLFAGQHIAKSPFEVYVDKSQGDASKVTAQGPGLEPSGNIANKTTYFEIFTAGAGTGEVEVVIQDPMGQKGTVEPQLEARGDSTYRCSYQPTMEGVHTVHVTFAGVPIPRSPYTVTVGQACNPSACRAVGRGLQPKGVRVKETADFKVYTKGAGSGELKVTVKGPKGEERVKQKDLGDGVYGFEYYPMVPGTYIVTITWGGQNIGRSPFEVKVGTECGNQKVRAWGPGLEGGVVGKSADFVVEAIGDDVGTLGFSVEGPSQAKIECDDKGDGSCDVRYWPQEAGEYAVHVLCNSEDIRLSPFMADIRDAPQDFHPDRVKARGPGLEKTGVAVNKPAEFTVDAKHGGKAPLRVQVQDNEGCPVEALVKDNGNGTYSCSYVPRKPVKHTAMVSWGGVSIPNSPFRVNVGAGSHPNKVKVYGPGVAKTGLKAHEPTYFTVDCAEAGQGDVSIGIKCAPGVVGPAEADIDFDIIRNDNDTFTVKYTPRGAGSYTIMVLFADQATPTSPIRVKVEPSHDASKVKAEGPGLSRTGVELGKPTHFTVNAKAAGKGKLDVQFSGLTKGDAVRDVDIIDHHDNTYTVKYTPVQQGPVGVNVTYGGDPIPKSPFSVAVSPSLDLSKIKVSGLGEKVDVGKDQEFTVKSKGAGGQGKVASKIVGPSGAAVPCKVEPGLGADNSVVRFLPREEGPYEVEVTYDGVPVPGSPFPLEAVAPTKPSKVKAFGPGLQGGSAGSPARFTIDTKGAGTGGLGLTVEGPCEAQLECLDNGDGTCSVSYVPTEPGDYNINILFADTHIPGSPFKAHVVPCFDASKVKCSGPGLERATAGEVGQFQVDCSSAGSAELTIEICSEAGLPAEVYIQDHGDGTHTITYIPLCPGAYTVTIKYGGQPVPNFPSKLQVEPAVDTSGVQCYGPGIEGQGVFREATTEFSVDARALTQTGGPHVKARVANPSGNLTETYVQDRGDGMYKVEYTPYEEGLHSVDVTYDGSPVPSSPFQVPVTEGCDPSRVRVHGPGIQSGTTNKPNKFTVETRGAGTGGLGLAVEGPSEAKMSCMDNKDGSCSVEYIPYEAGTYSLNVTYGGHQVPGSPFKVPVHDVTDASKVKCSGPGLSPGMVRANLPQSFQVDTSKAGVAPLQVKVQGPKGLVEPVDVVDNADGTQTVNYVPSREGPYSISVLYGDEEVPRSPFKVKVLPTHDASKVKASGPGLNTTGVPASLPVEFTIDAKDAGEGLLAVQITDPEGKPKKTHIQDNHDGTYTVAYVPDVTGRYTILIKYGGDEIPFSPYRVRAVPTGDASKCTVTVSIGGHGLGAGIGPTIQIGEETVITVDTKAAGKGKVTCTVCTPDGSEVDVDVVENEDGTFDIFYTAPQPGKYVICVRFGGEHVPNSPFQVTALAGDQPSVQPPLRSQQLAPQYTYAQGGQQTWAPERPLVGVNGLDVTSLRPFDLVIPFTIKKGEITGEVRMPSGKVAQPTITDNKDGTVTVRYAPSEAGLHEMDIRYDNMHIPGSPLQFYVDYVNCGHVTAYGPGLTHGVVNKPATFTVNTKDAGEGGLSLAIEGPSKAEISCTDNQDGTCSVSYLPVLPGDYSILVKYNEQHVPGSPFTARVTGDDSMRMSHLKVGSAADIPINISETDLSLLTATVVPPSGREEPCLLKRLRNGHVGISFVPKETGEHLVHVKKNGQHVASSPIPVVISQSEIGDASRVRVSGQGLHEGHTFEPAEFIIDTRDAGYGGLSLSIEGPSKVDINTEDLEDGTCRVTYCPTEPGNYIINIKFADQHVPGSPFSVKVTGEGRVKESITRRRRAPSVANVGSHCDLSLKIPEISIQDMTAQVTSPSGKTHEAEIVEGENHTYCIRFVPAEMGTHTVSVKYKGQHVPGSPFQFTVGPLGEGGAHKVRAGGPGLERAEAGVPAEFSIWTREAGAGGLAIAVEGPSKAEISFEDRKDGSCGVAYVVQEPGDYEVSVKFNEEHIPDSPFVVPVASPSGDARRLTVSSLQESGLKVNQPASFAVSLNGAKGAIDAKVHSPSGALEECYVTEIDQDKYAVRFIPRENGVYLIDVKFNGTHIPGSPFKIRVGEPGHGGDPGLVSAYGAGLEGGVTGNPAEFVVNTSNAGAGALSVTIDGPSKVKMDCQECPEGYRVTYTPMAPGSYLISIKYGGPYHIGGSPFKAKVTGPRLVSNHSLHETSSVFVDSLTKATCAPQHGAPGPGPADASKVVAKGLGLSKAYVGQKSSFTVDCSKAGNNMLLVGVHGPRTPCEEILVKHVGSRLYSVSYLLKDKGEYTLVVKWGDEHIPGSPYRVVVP
UniProt Q8WWP7: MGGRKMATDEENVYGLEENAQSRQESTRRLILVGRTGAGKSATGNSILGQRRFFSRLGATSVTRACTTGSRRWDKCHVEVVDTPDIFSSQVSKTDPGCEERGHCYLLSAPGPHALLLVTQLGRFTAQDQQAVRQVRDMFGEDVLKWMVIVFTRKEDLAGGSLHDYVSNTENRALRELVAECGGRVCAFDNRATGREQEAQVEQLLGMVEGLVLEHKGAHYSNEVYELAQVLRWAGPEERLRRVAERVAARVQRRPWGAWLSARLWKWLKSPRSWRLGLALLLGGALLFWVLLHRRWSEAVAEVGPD
UniProt P07437: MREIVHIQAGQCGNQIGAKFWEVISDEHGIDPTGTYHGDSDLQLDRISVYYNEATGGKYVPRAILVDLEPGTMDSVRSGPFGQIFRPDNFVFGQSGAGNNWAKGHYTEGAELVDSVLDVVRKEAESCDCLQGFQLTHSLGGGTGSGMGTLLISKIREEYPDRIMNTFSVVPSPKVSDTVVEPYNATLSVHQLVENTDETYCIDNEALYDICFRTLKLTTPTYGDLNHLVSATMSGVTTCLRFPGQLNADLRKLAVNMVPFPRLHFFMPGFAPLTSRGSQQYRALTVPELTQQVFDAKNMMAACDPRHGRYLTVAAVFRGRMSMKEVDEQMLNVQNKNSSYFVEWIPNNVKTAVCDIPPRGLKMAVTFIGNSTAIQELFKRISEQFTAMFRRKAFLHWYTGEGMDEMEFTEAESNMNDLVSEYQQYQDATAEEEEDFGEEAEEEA

Target: T1, Flag-USP40 (in HLMVECs) (human) (UniProt Q9NVE5)
T1 sequence: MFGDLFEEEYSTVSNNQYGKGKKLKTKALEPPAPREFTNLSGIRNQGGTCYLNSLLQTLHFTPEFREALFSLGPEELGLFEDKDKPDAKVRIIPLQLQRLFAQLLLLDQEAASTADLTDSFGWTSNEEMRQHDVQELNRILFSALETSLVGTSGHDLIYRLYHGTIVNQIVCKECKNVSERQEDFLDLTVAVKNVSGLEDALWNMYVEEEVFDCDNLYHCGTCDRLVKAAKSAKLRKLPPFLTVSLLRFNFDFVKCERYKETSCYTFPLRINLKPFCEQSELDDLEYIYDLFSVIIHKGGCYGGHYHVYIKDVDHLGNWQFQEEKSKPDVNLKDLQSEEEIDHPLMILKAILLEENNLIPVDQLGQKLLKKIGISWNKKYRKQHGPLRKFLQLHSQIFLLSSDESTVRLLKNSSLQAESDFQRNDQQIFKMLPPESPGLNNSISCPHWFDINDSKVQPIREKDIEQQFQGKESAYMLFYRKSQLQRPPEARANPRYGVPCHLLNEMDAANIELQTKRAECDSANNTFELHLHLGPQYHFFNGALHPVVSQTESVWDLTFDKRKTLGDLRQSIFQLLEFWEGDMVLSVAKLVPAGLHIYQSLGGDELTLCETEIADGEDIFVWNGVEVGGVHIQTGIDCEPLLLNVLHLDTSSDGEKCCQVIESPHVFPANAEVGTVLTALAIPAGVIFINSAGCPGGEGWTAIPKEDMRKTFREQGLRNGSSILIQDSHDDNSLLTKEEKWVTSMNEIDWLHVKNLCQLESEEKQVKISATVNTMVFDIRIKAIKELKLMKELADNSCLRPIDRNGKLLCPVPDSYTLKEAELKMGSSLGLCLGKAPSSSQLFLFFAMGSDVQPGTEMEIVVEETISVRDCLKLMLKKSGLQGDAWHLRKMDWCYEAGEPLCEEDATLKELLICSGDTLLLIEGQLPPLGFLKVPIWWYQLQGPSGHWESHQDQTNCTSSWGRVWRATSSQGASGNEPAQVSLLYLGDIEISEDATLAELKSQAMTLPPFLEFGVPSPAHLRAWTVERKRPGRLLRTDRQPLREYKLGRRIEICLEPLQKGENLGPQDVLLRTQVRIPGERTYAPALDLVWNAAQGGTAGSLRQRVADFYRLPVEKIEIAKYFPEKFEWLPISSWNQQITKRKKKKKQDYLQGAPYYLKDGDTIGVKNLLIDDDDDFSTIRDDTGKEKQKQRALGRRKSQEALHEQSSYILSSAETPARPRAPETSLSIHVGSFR
Assay: affinity purification with mass spectrometry; Flag-USP40 immunoprecipitated from transfected HLMVECs with FLAG-M2 affinity gel; eluted under reducing conditions, SDS-PAGE, Coomassie, bands excised, in-gel trypsin digestion, LC-MS

Row | Substance | binding
1 | 6-phosphofructo-2-kinase (from UniProt Q16875 1-520) | binds
2 | 26 S proteasome non-ATPase regulatory subunit 2 (from UniProt Q13200 1-908) | binds
3 | 78 kDa glucose-regulated protein (from UniProt P11021 19-654) | binds
4 | ADP-ribosylation factor 3 (from UniProt P61204 1-181) | binds
5 | ADP-ribosylation factor 4 (from UniProt P18085 1-180) | binds
6 | ATP synthase subunit alpha, mitochondrial (from UniProt P25705 44-553) | binds
7 | ATP-dependent RNA helicase DDX3X (from UniProt O00571 1-662) | binds
8 | Alpha-actinin-1 (from UniProt P12814 1-892) | binds
9 | Alpha-actinin-4 (from UniProt O43707 1-911) | binds
10 | Annexin A2 (from UniProt P07355 1-339) | binds
11 | Bcl-2-associated transcription factor 1 (from UniProt Q9NYF8 1-920) | binds
12 | Capping protein (Actin filament) muscle Z-line, beta (from UniProt P47756 1-272) | binds
13 | Caveolin-1 (from UniProt Q03135 1-178) | binds
14 | Clathrin heavy chain 1 (from UniProt Q00610 1-1675) | binds
15 | Cofilin-1 (from UniProt P23528 1-166) | binds
16 | Cytoskeleton-associated protein 4 (from UniProt Q07065 1-602) | binds
17 | Dedicator of cytokinesis protein 4 (from UniProt Q8N1I0 1-1966) | binds
18 | Desmoglein-1 (from UniProt Q02413 50-1049) | binds
19 | Desmoplakin (from UniProt P15924 1-2871) | binds
20 | Drebrin (from UniProt Q16643 1-649) | binds
21 | E3 ubiquitin-protein ligase TRIM21 (from UniProt P19474 1-475) | binds
22 | Endoplasmin (from UniProt P14625 22-803) | binds

Row | Substance | binding
23 | Eukaryotic initiation factor 4A-I (from UniProt P60842 1-406) | binds
24 | F-actin-capping protein subunit alpha-2 (from UniProt P47755 1-286) | binds
25 | Filaggrin-2 (from UniProt Q5D862 1-2391) | binds
26 | Filamin-A (from UniProt P21333 1-2647) | binds
27 | Filamin-B (from UniProt O75369 1-2602) | binds
28 | Filamin-C (from UniProt Q14315 1-2725) | binds
29 | GTPase IMAP family member 1 (from UniProt Q8WWP7 1-306) | binds
30 | Gelsolin (from UniProt P06396 28-782) | binds
31 | Glia maturation factor beta (from UniProt P60983 1-142) | binds
32 | Glyceraldehyde-3-phosphate dehydrogenase (from UniProt P04406 1-335) | binds
33 | Heat shock cognate 71 kDa protein (from UniProt P11142 1-646) | binds
34 | Heat shock protein HSP 90-beta (endogenous, HLMVEC) (from UniProt P08238 1-724) | binds
35 | Heterogeneous nuclear ribonucleoprotein K (from UniProt P61978 1-463) | binds
36 | Hornerin (from UniProt Q86YZ3 1-2850) | binds
37 | Isoform 2 of Spectrin beta chain, non-erythrocytic 1 (from UniProt Q01082-3 1-2155) | binds
38 | Isoform 2 of Tropomyosin alpha-3 chain (from UniProt P06753-2 1-248) | binds
39 | Isoform 3 of Unconventional myosin-Ic (from UniProt O00159-3 1-1044) | binds
40 | Isoform 4 of 40 S ribosomal protein S24 (from UniProt P62847-4 1-289) | binds
41 | Isoform 4 of LIM domain and actin-binding protein 1 (from UniProt Q9UHB6-4 1-760) | binds
42 | Major vault protein (from UniProt Q14764 1-893) | binds
43 | Methylosome protein 50 (from UniProt Q9BQA1 1-342) | binds
44 | Myosin light polypeptide 6 (from UniProt P60660 1-151) | binds

Row | Substance | binding
45 | Myosin regulatory light chain 12B (from UniProt O14950 1-172) | binds
46 | Myosin-9 (from UniProt P35579 1-1960) | binds
47 | Myosin-10 (from UniProt P35580 1-1976) | binds
48 | Nestin (from UniProt P48681 1-1621) | binds
49 | Neurabin-2 (from UniProt Q96SB3 1-817) | binds
50 | Plasminogen activator inhibitor 1 (from UniProt P05121 24-402) | binds
51 | Protein arginine N-methyltransferase 5 (from UniProt O14744 1-637) | binds
52 | Putative elongation factor 1-alpha-like 3 (from UniProt Q5VTE0 1-462) | binds
53 | Pyruvate kinase PKM (from UniProt P14618 1-531) | binds
54 | Serine/threonine-protein kinase 38 (from UniProt Q15208 1-465) | binds
55 | Serine/threonine-protein kinase 38-like (from UniProt Q9Y2H1 1-464) | binds
56 | Spectrin alpha chain, non-erythrocytic 1 (from UniProt Q13813 1-2472) | binds
57 | Splicing factor 3B subunit 3 (from UniProt Q15393 1-1217) | binds
58 | Supervillin (from UniProt O95425 1-2214) | binds
59 | Talin-1 (from UniProt Q9Y490 1-2541) | binds
60 | Thrombospondin-1 (from UniProt P07996 19-1170) | binds
61 | Tubulin alpha-1C chain (from UniProt Q9BQE3 1-449) | binds
62 | Tubulin beta chain (from UniProt P07437 1-444) | binds
63 | Ubiquitin-like protein ISG15 (from UniProt P05161 1-157) | binds
64 | Vimentin (from UniProt P08670 1-466) | binds
65 | Zinc finger protein 185 (from UniProt O15231 1-689) | binds
